# Test system: sperm
# Experiment: Flow cytometer sex sorting resolution with quenching dye
# Design: species or system bull
smiles,measurement,setting,value
O=S(=O)([O-])c1ccc(N=Nc2c(O)ccc3cc(S(=O)(=O)[O-])ccc23)cc1.[Na+].[Na+] [yellow 6 food dye],resolution in flow cytometry for sperm sorting,as quenching dye with Hoechst 33342,improves the resolution
same,quenching dye concentration to which it can be increased while maintaining good resolution,"sperm stained with Hoechst 33342, flow cytometer",at least 400%
